The supplement of paper PMC4683952
The list shows a part of the results. Rule as the data show it: active = 2 or more and inactive = the rest. This data set is noisy: repeats of one test often differ as much as different tests do.

System: Lgr5 (MarsCy1-Lgr5-EGFP, U2OS)
Experiment: cell-surface Lgr5 expression (SCi1 fluorescence, background-subtracted) relative to WT DMSO (fold of DMSO control); higher = more Lgr5 at the plasma membrane
Details: U2OS MarsCy1-Lgr5-EGFP stable; treatment time: overnight; library: ActiProbe-5K (TimTec); 25 µM

Structure (SMILES)	cell-surface Lgr5 expression
S=c1[nH]c2ccccc2s1	inactive: 0.996
Cc1ccc(-c2nnc(CSc3nccn3C)o2)o1	inactive: 1.13
COc1cc(/C=N/n2c(S)nnc2-c2ccncc2)cc(OC)c1OC	inactive: 1.23
N#CC1=C(N)C(C#N)(C#N)C(c2ccc[nH]2)C2CCCC=C12 (configuration not stated)	inactive: 0.821
CCC1CCC2(CC1)Nc1ccccc1S2 (configuration not stated)	inactive: 1.07
O=C(O)CCc1ccco1	inactive: 1.01
C/C(Cn1nnc([N+](=O)[O-])n1)=N\Nc1c(Cl)cc(Cl)cc1Cl	inactive: 1.06
C#Cc1nc(NC(C)C)nc(NC(C)C)n1	inactive: 1.05
CC(CC1CC(C)(C)OC1=O)C(=O)Nc1nncs1 (configuration not stated)	inactive: 1.24
CC(C)C(CO)NC(=O)CC(=O)NC(CO)C(C)C (configuration not stated)	inactive: 1.11
CN1CC(C(=O)N2CCc3ccccc32)CC1=O (configuration not stated)	inactive: 1.09
Cc1c([N+](=O)[O-])c2nsnc2c2nsnc12	inactive: 1.06
CNCc1ccsc1.Cl	inactive: 1.3
c1cc2c(cc1-n1cnnn1)OCO2	inactive: 1.11
CCn1cc(-c2csc(N)n2)cn1	inactive: 1.2
c1ccc2nc(SCc3ccon3)c(SCc3ccon3)nc2c1	active: 3.21
CCCCCCCCCS(=O)(=O)c1n[nH]c(N)n1	inactive: 1.08
O=C(O)C12CC3CC(C1)CC(n1cnc(Br)n1)(C3)C2	inactive: 1.24
O=S(=O)(c1ncn[nH]1)N1CCOCC1	inactive: 0.967
O=c1[nH]cnc2sc3c(c12)CCC3	inactive: 1.06
Cc1ncc(CO)c(CN)c1O.Cl	inactive: 1.05
c1cc(CSc2nc3ccccc3o2)nc(CSc2nc3ccccc3o2)c1	inactive: 1.16
O=C1CCCN1S(=O)(=O)c1ccc(Br)s1	inactive: 1.17
O=c1ccc2cc(S(=O)(=O)NCC3CCCO3)ccc2o1 (configuration not stated)	inactive: 1.02

Structure (SMILES)	cell-surface Lgr5 expression
c1ccc(CSc2nc3cccnc3[nH]2)nc1	inactive: 0.906
O=c1c2ccccc2nc2ccccn12	inactive: 1.12
C#CC[N+](C)(C)CC(=O)c1cccc2ccccc12.[Br-]	inactive: 1.54
Nc1cc(N)nc(SCc2ccc(Cl)c(Cl)c2)n1	inactive: 0.999
COc1ccc(C2Oc3ccccc3C3CC(c4ccccc4)=NN32)cc1 (configuration not stated)	inactive: 0.736
CC(C)(C)C(=O)CC1(O)Sc2ccccc2N=C1/C=C(/O)C(C)(C)C (configuration not stated)	inactive: 0.856
CN(c1nc(N2CCOCC2)nc(N2CCOCC2)n1)n1cccc1	inactive: 1.01
OCCN(CCO)CC(O)C12CC3CC(CC(C3)C1)C2 (configuration not stated)	inactive: 1.15
Cc1nc(CN2CCN(Cc3csc(C)n3)CC2)cs1	inactive: 1.15
CC(=O)C(C)Sc1nc2c(c(C(F)(F)F)c1C#N)CCCCCC2 (configuration not stated)	inactive: 1.24
C1=CN(c2ccccc2)C(/C=N\Cc2ccccc2)=CS1	inactive: 0.967
O=[N+]([O-])c1ccc2c(c1)ncn2C1CCCCC1	inactive: 0.888
CSc1ccc(/C=N\n2c(S)nnc2-c2ccccc2)cc1	inactive: 0.969
Fc1ccc(NC(=S)Nc2cccc3ccccc23)cc1	inactive: 0.917
Cc1c(CNc2[nH]ncc2[N+](=O)[O-])cnn1C	inactive: 1.21
Cc1nc2ccccc2[nH]/c1=N\O	inactive: 1.05
Nc1n[nH]c(CC(=O)O)n1	inactive: 1.14
Cc1ccc(/C=N/n2c(C)nnc2C)o1	inactive: 1.34
Nc1nc2c(nc(N3CCOCC3)n2C2OC(CO)C(O)C2O)c(=O)[nH]1 (configuration not stated)	inactive: 0.999
C/C(=N/O)c1no[n+]([O-])c1/C(C)=N\O	inactive: 1.32
N#Cc1c(NC(=O)C(F)(F)F)sc2c1CCC2	inactive: 1.07
Fc1ccccc1OCCSc1nc2ccccc2o1	inactive: 1.07
Oc1nc(/C=C\c2ccc(Br)cc2)cc(/C=C\c2ccc(Br)cc2)n1	inactive: 0.407
C=CCNc1sc(N)c(C#N)c1C(=O)c1ccc(Br)s1	inactive: 1.24

Structure (SMILES)	cell-surface Lgr5 expression
Cc1ccc(C2=NNC(C(O)C(O)C(O)CO)S2)cc1 (configuration not stated)	inactive: 0.985
c1ccc(CSc2nn3c(SCc4ccccn4)nnc3s2)nc1	inactive: 1.03
CN(C)c1ccc(/C=N\c2ccc(S(N)(=O)=O)cc2)cc1	inactive: 1.28
Cc1c(C2CC(C(F)(F)F)n3nccc3N2)cnn1C (configuration not stated)	inactive: 1.19
FC(F)(F)c1ccc(-c2nnc3cccc(Cl)n23)cc1	inactive: 1.34
S=c1[nH]cc(-c2ccc(Cl)cc2)n1C12CC3CC(CC(C3)C1)C2	inactive: 1.71
N#C/C(=C\c1cc(Br)cs1)C(N)=O	inactive: 1.09
Cc1cc(C)n2nnnc2n1	inactive: 1.31
Cc1ccc(/C=N/n2cnnc2)s1	inactive: 0.886
O=C(O)c1cc([N+](=O)[O-])[nH]n1	inactive: 1.12
c1coc(CCC2NCCn3cccc32)c1 (configuration not stated)	inactive: 1.2
S=C(SCc1cccs1)N1CCOCC1	inactive: 0.195
CCCCCCCCNc1nc(NCCC)nc(OCC)n1	inactive: 1.12
Fc1ccc(NC(=S)NCC2CCCO2)cc1 (configuration not stated)	inactive: 1.06
CC(=N/Oc1nc(nc(n1)N(C)C)N(C)C)/C	inactive: 1.61
Cc1cc(-c2oc(N)c(C#N)c2-c2cc(C)sc2C)c(C)s1	inactive: 0.991
O=C(O)C1(N2CCOCC2)CCNCC1	inactive: 1.5
CC1CC(=O)C2CCCCC2S1 (configuration not stated)	inactive: 0.892
CCCC(C)NC(=O)N1CCOCC1 (configuration not stated)	inactive: 0.996
N#Cc1c(C(F)(F)F)cc(-c2ccccc2)nc1SC(CCC1CC1)c1ccccc1 (configuration not stated)	inactive: 1.03
Cc1nc2c(oc3ccccc32)c(=O)o1	inactive: 1.22
Brc1ccc2ncccc2c1	inactive: 1.26
O=S1(=O)N=C(N/N=C/c2ccccn2)c2ccccc21	inactive: 0.702
O=Cc1csc(Cn2cnc([N+](=O)[O-])n2)c1	inactive: 0.957

2 entries picked at random from the list so far:
Structure (SMILES)	cell-surface Lgr5 expression
CC(C)C(CO)NC(=O)CC(=O)NC(CO)C(C)C (configuration not stated)	inactive: 1.11
Fc1ccc(NC(=S)Nc2cccc3ccccc23)cc1	inactive: 0.917

2 neighbouring records already listed:
Structure (SMILES)	cell-surface Lgr5 expression
Cc1nc2c(oc3ccccc32)c(=O)o1	inactive: 1.22
Brc1ccc2ncccc2c1	inactive: 1.26
